# Assay results

Source: PubChem BioAssay AID1159506 (NCATS, 2015).

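Genome-wide siRNA knockdown in TC32 Ewing sarcoma cells, comparing luciferase light from an NR0B1-promoter reporter with a CMV-promoter reporter 48 hours after transfection. Each siRNA was applied at 20 nM. A z-score of the log NR0B1-over-CMV signal, less the median of siRNAs with the same seed; more negative means a stronger specific loss of the NR0B1 reporter.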

The strongest results of the screen are mostly left out here. Sequences are the guide (antisense) strand, without overhang.

strand: UCGCUUCUCAGGUAUUUGC
target gene: BCO1
seed-corrected z-score: -0.6016

strand: UAUCGUUUCCUUAUGGUCA
target gene: ANXA10
seed-corrected z-score: -0.4238

strand: UAUCGUGUCAUUCUCAUGG
target gene: VPS26B
seed-corrected z-score: 0.382

strand: AUGGUAGUAUCAUCAUUGC
target gene: XKR3
seed-corrected z-score: -1.286

strand: ACUUUUACAACGGAAUUAC
target gene: MEDAG
seed-corrected z-score: -0.512

strand: UUCGGUCCGUCUUCACCUC
target gene: FITM2
seed-corrected z-score: 0.0891

strand: UAUUCGAAGGUAUCCAGGC
target gene: MVB12A
seed-corrected z-score: 0.5219

strand: AAGGAUACAAAUGUCCUCC
target gene: NNT
seed-corrected z-score: -0.2591

strand: UCUGAUUCUGGUUUCUGCC
target gene: EIF1P3
seed-corrected z-score: -0.392

strand: UCAAUACCCACUGUAGGUC
target gene: NCSTN
seed-corrected z-score: -0.05302

strand: UUCUAAUCCAGCAGAGUAC
target gene: DTNBP1
seed-corrected z-score: 0.7799

strand: UUGGUAAAGCACAUACUCU
target gene: PINLYP
seed-corrected z-score: 1.493

strand: UCUCCGAAGUGAUUUAUCC
target gene: GOLGA4
seed-corrected z-score: -0.3053

strand: UCUGAGCUUUGCGAAAUGG
target gene: IFNAR1
seed-corrected z-score: 0.5588

strand: AAUCGGACAGCUUUUCUGC
target gene: ZNF516
seed-corrected z-score: -0.407

strand: AAAUCGAUCCCAACUGUGC
target gene: RAB3C
seed-corrected z-score: 0.1867

strand: UUUAAUCUUUGAAGAAUGG
target gene: RASSF6
seed-corrected z-score: 0.03079

strand: UGAUGCGUUAGGGAACUGC
target gene: RECQL
seed-corrected z-score: -0.168

strand: UCUUGAAUAAGGAAACAGG
target gene: SPSB4
seed-corrected z-score: -0.2904

strand: UGAGGGUUAAGGCUGGUGC
target gene: RAB1B
seed-corrected z-score: -1.224

strand: AAUCCCAAAAUUUCGUCUG
target gene: FUT11
seed-corrected z-score: -0.5322

strand: UUCUUGUCUGUUGCCGUAG
target gene: MRC1
seed-corrected z-score: -0.274

strand: UCUAGGACCAACAUCCUUC
target gene: SIK2
seed-corrected z-score: -0.1203

strand: AACCCGAUAUAUUCCACUG
target gene: HSPA14
seed-corrected z-score: 0.6948

strand: UCAUCGACAUGAUUCGGCG
target gene: NKX2-1
seed-corrected z-score: 0.6184

strand: UAGCAGAUCAGGUAGAGCG
target gene: SLC43A2
seed-corrected z-score: 0.3446

strand: UGUGCUACCUUCUUGCUGC
target gene: ZNF598
seed-corrected z-score: -0.03045